# According to PubChem BioAssay AID493014 (National Center for Advancing Translational Sciences (NCATS), 2011):
# Hit rate of the full screen: of about 340,000 compounds, about 170 (0.05%) were called active. The shares of active, inactive and inconclusive entries below differ from those in the screen. Calls follow the shape of the dose curve; as a rule, active = well fitted inhibition curve with a large enough effect in the signal ratio, with a control signal flat (not every such curve was filed as active); inconclusive = small, poorly fitted or top-dose-only effect, or effect the other way, or a change in a side signal; inactive = flat fitted curve, though single readings scatter; the % refers to the signal ratio. Where the call is inconclusive, the potency comes from a doubtful curve fit.
# Experiment: qHTS Assay to Find Inhibitors of Chronic Active B-Cell Receptor Signaling;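 as to activity change, negative = inhibition: plate controls were basal doxycycline-induced cells for no effect and cells given 10 µM MG132 for full effect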
# Details: ABC-DLBCL IkBa-CBG/CBR reporter, luminescence ratio (green luciferase fused to IkBa over red control in TMD8 lymphoma cells), 4 h; activity change, negative = inhibition: at 46.1 µM (top of the series) unless noted
# Outline: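 Cell line TMD8 (human ABC DLBCL), stably expressing tet-inducible CBG68-IkBa fusion and CBR; IMDM/0.5% FBS; cpd up to 46 uM; dox induction, 4 h, 37C/5% CO2; dual luminescence; green/red ratio; MG132 control.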
# Potency is read from the fitted curve at half-maximal effect.
SMILES,"activity change, negative = inhibition",Potency
C=CCn1cnc2scc(-c3ccc(C)c(C)c3)c2c1=O,inconclusive: 3.42%,
Cc1ccc(-n2c(SC3CCOC3=O)nc3ccccc3c2=O)cc1 (stereo not given),inconclusive: 7.51%,
COc1cccc2cc(-c3nnc(Nc4ccccc4C)s3)c(=O)oc12,,"inconclusive: 0.708 µM [falling, full curve, poor fit]"
CCc1nc2ccccc2[nH]1,inactive: 1.17%,
Cc1ccc2nc(/C(C#N)=C/c3ccc(-c4ccccc4C(=O)O)o3)[nH]c2c1,inconclusive: -0.787%,
O=C(O)CCCN1C(=O)/C(=C/c2ccncc2)SC1=S,inconclusive: -177%,
CCOC(=O)c1ccc(NNC(=O)CC)c([N+](=O)[O-])c1,inconclusive: 0.951%,
COC(=O)c1ccc(COC(=O)c2ccccn2)cc1,,"inconclusive: 7.31 µM [rising, partial curve, poor fit]"
Cn1nc(-c2ccccc2)c(CSc2cccc(Cl)c2)c1Cl,,"inconclusive: 23.1 µM [rising, single point]"
Cc1ccc(/C=c2\sc3nc(-c4ccco4)nn3c2=O)o1,inconclusive: 8%,
S=C(NCc1ccccc1)NNc1ccccc1,,"inconclusive: 31.6 µM [cytotoxic, single point]"
CC(C)CN1CCN(Cc2c[nH]c3ccccc23)CC1CCO (stereo not given),inactive: -2.65%,
COc1cc(NCCC(=O)c2cccs2)c(OC)cc1Cl,inactive: -5.06%,
Cn1c(=O)[nH]c2sc3c(c2c1=O)CC(C)(C)OC3,inconclusive: 15.4%,
O=C(c1ccccc1)c1cnc2ccc(Cl)cc2c1N1CCOCC1,inconclusive: 12.6%,
O=C(COc1ccccc1[N+](=O)[O-])OC1CCS(=O)(=O)C1 (stereo not given),inactive: -23%,
CCCC12CN3CC(C)(CN(C1)C3c1ccc3c(c1)OCO3)C2=O (stereo not given),inconclusive: 10.1%,
COc1cc2c(cc1OC)/C(=C/C(=O)c1ccccc1)NCC2,inconclusive: -0.973%,
Cc1cc(C)n(-c2cccc(CN(C)Cc3nc(-c4cnccn4)no3)c2)n1,,"inconclusive: 10 µM [falling, partial curve, poor fit]"
O=C(CC1Nc2ccccc2NC1=O)Nc1ccccc1 (stereo not given),,"inconclusive: 23.1 µM [falling, partial curve]"
COCCn1c(C)cc(C(=O)COC(=O)Cc2n[nH]c(=O)c3ccccc23)c1C,inactive: -8.24%,
COc1ccc2[nH]cc(/C=C(/C#N)S(=O)(=O)c3ccccc3)c2c1,,"inconclusive: 29.1 µM [falling, single point]"
O=C(Nc1ncc([N+](=O)[O-])s1)c1ccco1,,"inconclusive: 10 µM [falling, partial curve]"
COc1cccc(CN(C)CC(=O)Nc2ccccc2C(C)C)c1,inactive: 0.0692%,
COc1ccc(-n2cc(CN(C)Cc3n[nH]c(=O)[nH]3)c(-c3cccc(F)c3)n2)cc1,inconclusive: -27.1%,
COc1ccc(OCC(=O)Nc2cccc(-c3nc4ccccc4[nH]3)c2)cc1,,"inconclusive: 20 µM [falling, partial curve, poor fit]"
CCN(CC(=O)NCc1ccc(F)cc1)C(=O)CN1CCN(c2ccc(OC)cc2)CC1,inactive: -0.868%,

SMILES,"activity change, negative = inhibition",Potency
O=C(Nc1ccc2c(c1)OCO2)c1cccc(S(=O)(=O)N2CCCC2)c1,inconclusive: -7.01%,
Cc1cccc(C(=O)NC(=S)NNC(=O)c2ccc(Cl)cc2)c1,,"inconclusive: 16.4 µM [falling, single point]"
C=CCN(c1ccccc1OC)S(=O)(=O)c1cccc(C(=O)OCC(=O)N2CC(C)OC(C)C2)c1 (stereo not given),,"inconclusive: 20.6 µM [rising, partial curve, poor fit]"
CCNC(=S)N1C2CCC1CC(NC(=O)NC1CCCCC1)C2 (stereo not given),inconclusive: 4.05%,
O=C(NC1=NCCS1)c1cc(-c2ccc(-c3ccccc3)cc2)nc2ccccc12,inconclusive: 2.58%,
COc1ccc(NC(=O)CCCn2cc([N+](=O)[O-])cn2)cc1,inconclusive: 1.26%,
O=C1Nc2cc(Cl)c(Cl)cc2N(O)N1c1ccccc1,,"inconclusive: 29.1 µM [rising, single point]"
CCOc1ccc(Oc2nc(N(CC)CC)nc(N3CCOCC3)n2)nn1,,"inconclusive: 11.2 µM [falling, partial curve, poor fit]"
COc1ccc(Br)cc1Cn1nnc(C(=O)Nc2ccc3c(c2)OCCO3)c1N,inconclusive: -8.8%,
O=C(Nc1nc(-c2cccc([N+](=O)[O-])c2)cs1)C(c1ccccc1)c1ccccc1,inconclusive: 6.81%,
Cc1ccc(N/C(N)=N/c2nc(C)cc(C)n2)cc1,inconclusive: 9.43%,
COc1cc(C(=O)Nc2sc3c(c2C(=O)O)CCC3)cc(OC)c1OC,,"inconclusive: 1 µM [falling, full curve, poor fit]"
Cn1ncc2c(NCc3cccc(Cl)c3)ncnc21,,"inconclusive: 22.4 µM [falling, single point]"
Cc1ccc(S(=O)(=O)Nc2ccc(OCC(=O)N3CCOCC3)cc2)c(C)c1NS(C)(=O)=O,inconclusive: -0.554%,
CCOc1ccc(NC(=O)Nc2c(C)n(C)n(-c3ccccc3)c2=O)cc1,inactive: -1.27%,
Cc1cc(C)cc(NC2=NC3(CCCCC3)N=C(N)N2)c1,,"inconclusive: 12.6 µM [falling, partial curve]"
Cc1ccc(OC(C)C(=O)N(Cc2cccs2)C2CCS(=O)(=O)C2)cc1C (stereo not given),inconclusive: -5.13%,
CC(CC12CC3CC(CC(C3)C1)C2)NCc1ccccc1O (stereo not given),inconclusive: -26.4%,
O=c1[nH]c(=O)c2nc(-c3ccc(Cl)cc3)cnc2[nH]1,inconclusive: -17.3%,
CCOc1cc(/C=C/c2cccc[n+]2C)ccc1O,inconclusive: 10.4%,
CC(C)(CC(=O)O)CC(=O)N1CCCN(c2nccc(C(F)(F)F)n2)CC1,inactive: 5.36%,
CCc1nnc2n1N=C(c1ccc(OC)cc1)CS2,,"inconclusive: 29.1 µM [falling, single point]"
COc1cccc2sc(N3CCN(C(=O)c4ccc([N+](=O)[O-])o4)CC3)nc12,inconclusive: -10.6%,
CCOC(=O)c1c(NC(=O)C(C)S(=O)(=O)c2cn(CC)c3ccccc23)sc2c1CCCC2 (stereo not given),inactive: 5.53%,
N#C/C(=C/c1ccc(N2CCCCC2)cc1)c1cccc(F)c1,inconclusive: 23.4%,
N#CCCn1nc(-c2ccc(Cl)cc2)cc1Nc1ccccc1NC(=O)C(F)(F)F,,"inconclusive: 25.9 µM [rising, partial curve, poor fit]"
CCCc1nnc(-c2ccc(OC)cc2)o1,inconclusive: -0.342%,

# Given with bars between the fields: 4 of the compounds above.
SMILES | activity change, negative = inhibition | Potency
O=C(COc1ccccc1[N+](=O)[O-])OC1CCS(=O)(=O)C1 (stereo not given) | inactive: -23% | 
O=C(Nc1ncc([N+](=O)[O-])s1)c1ccco1 |  | inconclusive: 10 µM [falling, partial curve]
COc1ccc(NC(=O)CCCn2cc([N+](=O)[O-])cn2)cc1 | inconclusive: 1.26% | 
CCOc1ccc(NC(=O)Nc2c(C)n(C)n(-c3ccccc3)c2=O)cc1 | inactive: -1.27% | 

# Later entries:

SMILES,"activity change, negative = inhibition",Potency
O=C(N/N=C/c1coc2ccccc2c1=O)c1ccccc1,inconclusive: -23.9%,
O=C(COC(=O)c1ccc(O)cc1O)Nc1nnc(-c2ccccc2)o1,,"inconclusive: 20.6 µM [falling, partial curve, poor fit]"
CN(C(=O)CSc1cc(Cl)ccc1Cl)C1CCS(=O)(=O)C1 (stereo not given),inconclusive: -2.87%,
O=C(O)c1ccc(N/N=C/c2ccc(-c3cc(Cl)ccc3Cl)o2)cc1,inconclusive: -2.45%,
O=C(NC1CCCC1)c1cc2c(ccc3ccccc32)o1,,"inconclusive: 4.11 µM [falling, single point]"
Cc1cc(=O)[nH]c2nnc(SCC(=O)Nc3cc(C(F)(F)F)ccc3Cl)n12,inactive: 17.8%,
Cc1[nH]nc2ncc(C(=O)c3cc(F)ccc3O)cc12,,"inconclusive: 29.1 µM [falling, single point]"
COc1ccc(CCNC(=O)c2cc(C3CC3)on2)cc1OC,inconclusive: 7.94%,
CC1=NN(c2ccc([N+](=O)[O-])cc2)C(c2ccccc2)C1 (stereo not given),inconclusive: 28.3%,
CC(C)(C)SCCNC(=O)c1ccc(CN2CCc3ccccc3C2)cc1,inactive: 1.44%,
Cc1nc(C#N)c(N/N=C/c2cccc(Cl)c2)o1,inconclusive: 3.34%,
Cn1cnc2cc(NCc3ccccc3O)ccc21,,"inconclusive: 22.4 µM [falling, partial curve, poor fit]"
Cc1ccc(-n2ccc(=O)c(C(=O)Nc3ccc(S(=O)(=O)Nc4onc(C)c4C)cc3)n2)cc1,inactive: -1.54%,
Cc1ccccc1CNC(=O)C(=O)NCC(c1ccco1)S(=O)(=O)c1ccc(F)cc1 (stereo not given),inconclusive: 0.361%,
Cc1ccc(C2=N/C(=C\N(C)C)C(=O)O2)cc1,,"inconclusive: 1.3 µM [rising, full curve, poor fit]"
CC(C)(C)c1ccc(C(=O)NCCC(=O)NNC(=O)COc2ccccc2F)cc1,inconclusive: -7.9%,
Cc1cccc(CN2CCc3c(OCC(=O)N4CCCc5ccccc54)cccc3C2=O)c1,,"inconclusive: 23.1 µM [falling, partial curve]"
CC(C)c1onc(C(=O)N2CCN(c3ccc(F)cc3)CC2)c1[N+](=O)[O-],inactive: -9.93%,
O=C(O)C1C2C=CC(O2)C1C(=O)Nc1ccccc1C(F)(F)F (stereo not given),inconclusive: 15.1%,
CCNc1nc(N)c(C(=C(C#N)C#N)c2ccccc2)s1,inactive: 14%,
CN1CCc2c(sc(/N=C/c3c[nH]c4ccccc34)c2C#N)C1,inconclusive: 0.101%,
O=[N+]([O-])c1ccc(COc2cccnc2)cc1,inconclusive: 3.41%,
CC1CCc2[nH]c3ccc(C(=O)N(C)CC(=O)Nc4ccc(F)cc4)cc3c2C1 (stereo not given),,"inconclusive: 12.6 µM [rising, partial curve, poor fit]"
Cc1cccc(OCCOC(=O)c2ccc(F)c(S(=O)(=O)N3CCOCC3)c2)c1,inconclusive: -10.9%,
O=C(Nc1ccc2ccccc2c1)N1CCN(c2ncccc2C(F)(F)F)CC1,inconclusive: -4.19%,
COc1cccc(/C=C2/SC(=S)N(CCCC(=O)Nc3ccc(O)cc3)C2=O)c1,,"inconclusive: 22.4 µM [falling, partial curve]"
